No constants are given. Whether binding was seen depends on the method and setting.

Experimental findings from article doi:10.1101/766162 are described below.

The target in this assay is T1, M. tuberculosis GroEL1 (full length) (M. tuberculosis), P9WPE9.
T1 chain: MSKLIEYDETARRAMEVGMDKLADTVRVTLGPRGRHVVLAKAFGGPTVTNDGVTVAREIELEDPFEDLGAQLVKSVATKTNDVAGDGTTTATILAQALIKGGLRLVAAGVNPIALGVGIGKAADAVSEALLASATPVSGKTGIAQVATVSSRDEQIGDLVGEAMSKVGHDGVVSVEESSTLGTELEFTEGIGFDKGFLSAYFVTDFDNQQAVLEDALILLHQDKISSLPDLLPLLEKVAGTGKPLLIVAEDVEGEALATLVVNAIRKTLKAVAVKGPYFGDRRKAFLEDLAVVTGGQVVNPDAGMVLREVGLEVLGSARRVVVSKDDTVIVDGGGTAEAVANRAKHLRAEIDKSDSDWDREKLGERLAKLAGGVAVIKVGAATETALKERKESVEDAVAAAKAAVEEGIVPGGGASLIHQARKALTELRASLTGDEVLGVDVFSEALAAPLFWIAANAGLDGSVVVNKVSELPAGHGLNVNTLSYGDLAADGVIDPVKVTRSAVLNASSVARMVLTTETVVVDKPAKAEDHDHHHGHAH
Nature of the assay: SAXS. As to conditions: remark: other sources report otherwise.

B1: M. tuberculosis GroEL1 (full length), P9WPE9 1-539 (protein)
chain: T1 chain
B1: the binding entry is “no binding (tested: 5 mg/ml)”.
